# Results taken from PubChem BioAssay AID1688 (National Center for Advancing Translational Sciences (NCATS), 2009).
# Screen size: about 220,000 compounds; about 2,400 (1.1%) were called active. The inconclusive results got no clear call from the source; some entries with a clear call stand among them for comparison. Calls come from the whole dose curve; as a rule, active = well fitted inhibition curve with a large enough effect; inconclusive = small, poorly fitted or top-dose-only effect, or effect the other way; inactive = no such curve, though single readings can be large or run the other way. A potency beside an inconclusive call is a rough fit, not a confirmed value.
# Experiment: qHTS Multiplex Assay to Identify Dual Action Probes in a Cell Model of Huntington: Aggregate Formation (GFP); note: nearly all actives have a fitted effect of over 60% in size
# Details: PC12 HttQ103-GFP aggregates, Acumen cytometry, 40 h; activity change, negative = inhibition: at 46.1 µM (top of the series) unless noted
# Method in brief: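 Compounds (qHTS titration) were added to PC12 cells expressing an ecdysone-driven HTT exon 1 Q103–GFP fusion after induction with 100 nM tebufenozide. Aggregate formation was measured as GFP objects in cell lysates.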
# % is set by controls: 0 for no effect and ±100 for the full control effect; potency is the fitted concentration of half-maximal effect.
Structure (SMILES),Potency,"activity change, negative = inhibition"
O=C(N/N=C\c1cc(Cl)ccc1O)c1ccc(S(=O)(=O)N2CCCCC2)cc1,"inconclusive: 1.41 µM [inhibitor, full curve]",
COc1ccccc1NS(=O)(=O)c1cc(NC(=O)C2CCCC2)ccc1N1CCOCC1,"inconclusive: 7.08 µM [activator, partial curve]",
O=C(NCc1cccnc1)NC1(C(F)(F)F)Oc2ccc(Cl)cc2O1 (centres undefined),"inconclusive: 5.01 µM [activator, full curve]",
C=CCn1c(N)c(C(=O)OCC)sc1=S,inactive,
Cc1ccccc1-n1nc(C)c(N=O)c1N,"inconclusive: 11.2 µM [activator, partial curve]",
Cc1ccc[n+](C(C)C(=O)c2ccc(-c3ccccc3)cc2)c1 (centres undefined),"inconclusive: 8.91 µM [inhibitor, partial curve]",
Cc1cc(N/N=C/c2ccc(O)cc2O)nc(-n2nc(C)cc2C)n1,"inconclusive: 3.55 µM [inhibitor, full curve]",
COc1cc(C(CCN2CCCCC2)c2c(OC)cc(OC)c3c(C)cc(=O)oc23)cc(OC)c1OC (centres undefined),"inconclusive: 1.12 µM [inhibitor, single point]",
NC(N)=NC1=NC(=O)/C(=C/c2ccccc2-n2cccn2)S1,"inconclusive: 8.91 µM [activator, partial curve]",
O=C(CSc1nnnn1C1CC2CCC1C2)Nc1ccnc2ccccc12 (centres undefined),"inconclusive: 35.5 µM [inhibitor, single point]",
COc1ccc2c(c1)C1NC(=S)NC(C)(O2)C1C(=O)Nc1ccccc1C (centres undefined),"inconclusive: 28.2 µM [inhibitor, single point]",
CC(C)OC(=O)CSc1nnc(-c2ccc(C(C)(C)C)cc2)n1N,inactive,
N#C/C(=C/c1ccc(N2CCCCC2)o1)C(=O)Nc1ccc(Cl)cc1,"inconclusive: 2.82 µM [inhibitor, partial curve]",
Cc1nc(SCC(=O)N2CCOCC2)c2ccsc2n1,"inconclusive: 8.91 µM [inhibitor, single point]",
Cc1cc(=O)[nH]c(SCc2nc3ccccc3n2Cc2ccccc2)n1,inactive,
O=C(Cn1cccc1)N1CCN(C(c2ccccc2)c2ccccc2)CC1,inactive,
CNc1nc(-c2ccccn2)nnc1-c1ccccc1,"inconclusive: 3.55 µM [inhibitor, full curve]",
COc1ccc(CC2C(=O)OC(C)(C)OC2=O)cc1,inactive,
O=C(CCCC(=O)N1CCN(c2ccc([N+](=O)[O-])cc2)CC1)c1ccccc1,inactive,
Cc1nn(C)c(C)c1N1C(=O)c2cccc3c(N)ccc(c23)C1=O,"inconclusive: 14.1 µM [inhibitor, single point]",
O=C(c1cc2c(s1)-c1ccccc1OC2)N1CCc2ccccc2C1,"inconclusive: 10 µM [inhibitor, partial curve]",
CCOC(=O)c1ccc(NC(=O)NC2CC3CCC(C2)N3)cc1 (centres undefined),"inconclusive: 4.47 µM [inhibitor, single point]",
CCc1nnc(NC(=O)C2=NN(C3CCS(=O)(=O)C3)C(=O)CC2)s1 (centres undefined),"inconclusive: 35.5 µM [activator, single point]",

Structure (SMILES),Potency,"activity change, negative = inhibition"
c1csc(-c2nnc(N3CCCCCC3)c3ccccc23)c1,"inconclusive: 3.16 µM [inhibitor, full curve, poor fit]",
Cc1cc(N2CCC(C)CC2)c(F)cc1[N+](=O)[O-],inactive,
CCCc1cc(=O)[nH]c(SCc2cccnc2)n1,inactive,
COc1ccc(CNCC(O)(c2ccc(Cl)cc2)c2ccc(Cl)cc2)cc1OC,"inconclusive: 35.5 µM [inhibitor, single point]",
O=C(CSc1ccc2ccccc2n1)NCCC1=CCCCC1,"inconclusive: 7.08 µM [activator, full curve, poor fit]",
O=C(Nc1cccnc1Cl)c1ccc(Cl)c([N+](=O)[O-])c1,"inconclusive: 35.5 µM [inhibitor, single point]",
CCCCOc1nc2ccccc2nc1C(C#N)S(=O)(=O)c1ccccc1 (centres undefined),"inconclusive: 22.4 µM [inhibitor, single point]",
CCCOc1ccc(S(=O)(=O)NCc2ccc(OC)cc2)cc1,"inconclusive: 35.5 µM [inhibitor, single point]",
CC(=O)c1cn(CCC(C)C)c(=O)[nH]c1=O,"inconclusive: 2.24 µM [inhibitor, partial curve]",
CC(C)Cn1c(-c2csc3c2CCCC3)n[nH]c1=S,inactive,
O=C(Cc1ccccc1)N/N=C/c1ccc([N+](=O)[O-])s1,"inconclusive: 12.6 µM [inhibitor, partial curve]",
CC1(C)CC(=O)C(C=Nc2cccnc2)=C(O)C1,"inconclusive: 25.1 µM [inhibitor, single point]",
CC(=O)Nc1ccc(N/C=C2/CCCC2=O)cc1,,inactive: 29% [at 9.22 µM]
CCOC(=O)c1c(-c2ccc(F)cc2)csc1NC(=O)CCN1CCOCC1,"inconclusive: 2.51 µM [activator, partial curve]",
O=C(Nc1nnc(COc2ccc(F)cc2)s1)Nc1ccccc1F,"inconclusive: 1.26 µM [activator, single point]",
O=C(NC1CC1)c1nc2c(nnn2Cc2ccccc2Cl)c(=O)[nH]1,inactive,
CC(C)Sc1nc2c(cnn2-c2ccc(F)cc2)c(=O)[nH]1,"inconclusive: 1.41 µM [inhibitor, partial curve]",
Cc1nnc(NC(=O)C2c3ccccc3Oc3ccccc32)s1,"inconclusive: 7.08 µM [inhibitor, partial curve]",
CCC1CCCCN1C(=S)Nc1ccc(SC(F)F)cc1 (centres undefined),"inconclusive: 5.62 µM [inhibitor, single point]",
Cn1cc(SCC(=O)NCCc2ccccc2)c2ccccc21,inactive,
O=C(CN1CCN(c2ncccn2)CC1)N1CCCc2c1c(=O)oc1ccc(O)cc21,"inconclusive: 3.55 µM [activator, partial curve]",
O=C(/C=C/c1cccc([N+](=O)[O-])c1)Nn1c(-c2ccccc2F)nc2ccccc2c1=O,inactive,
O=C(Nc1ccc(Oc2ccccc2)cc1)c1cnc2n(c1=O)CCS2,"inconclusive: 3.16 µM [inhibitor, full curve]",

Structure (SMILES),Potency,"activity change, negative = inhibition"
Cc1ccc(-c2csc(NC(=O)/C=C/c3cccs3)n2)cc1C,"inconclusive: 20 µM [inhibitor, partial curve, poor fit]",
Cc1cccc(-c2n[nH]c(=S)n2/N=C/c2ccco2)c1,,inactive: -4.3% [at 9.22 µM]
CC1CC(C)CN(c2ncc3c(n2)CC(c2ccccc2)CC3=O)C1 (centres undefined),inactive,
CC(C)c1onc(C(=O)NC2CCCCC2)c1[N+](=O)[O-],"inconclusive: 25.1 µM [inhibitor, single point]",
O=C(Cn1ccc2ccccc2c1=O)NCCC(=O)N1CCN(c2cccc(C(F)(F)F)c2)CC1,"inconclusive: 35.5 µM [inhibitor, single point]",
COc1ccc(NC(=S)Nc2ccc(N(C)C(C)=O)cc2)cc1,"inconclusive: 0.562 µM [inhibitor, partial curve, poor fit]",
C[C@@H](C(=O)NCc1ccccc1)[C@H]1C[C@]1(C)[C@H](NC(=O)OCc1ccccc1)c1ccccc1,"inconclusive: 20 µM [inhibitor, single point]",
CC(C)(C)NC(=O)NC(=O)CN1CCN(C(c2ccccc2)c2ccccc2)CC1,"inconclusive: 12.6 µM [inhibitor, single point]",
Cc1ccc(OCC(O)Cn2c(N3CCOCC3)nc3c2c(=O)[nH]c(=O)n3C)cc1 (centres undefined),inactive,
O=C(N/N=C1/C(=O)c2cccc3cccc1c23)c1ccc(Cl)cc1,"inconclusive: 8.91 µM [inhibitor, partial curve]",
Oc1cccc(/C=N/NC(=S)NCCN2CCOCC2)c1O,"inconclusive: 35.5 µM [inhibitor, single point]",
C=CCN1C(=O)C(CC(=O)Nc2ccccc2)N(Cc2ccccn2)C1=S (centres undefined),"inconclusive: 8.91 µM [activator, partial curve]",
O=C(COc1ccccc1)Nc1nc(-c2ccc(S(=O)(=O)N3CCOCC3)cc2)cs1,"inconclusive: 15.8 µM [inhibitor, single point]",
COc1ccccc1N1CCN(CC(=O)Nc2ccc(Cl)c(C(F)(F)F)c2)CC1,"inconclusive: 35.5 µM [inhibitor, single point]",
C=CC[n+]1c(-c2ccc(OC)c(OC)c2)csc1NNC(=O)Nc1ccccc1,active: 12.6 µM,
Clc1cccc(N=C2NN=C(c3ccc4c(c3)OCCO4)CS2)c1,"inconclusive: 35.5 µM [inhibitor, single point]",
Cc1occc1C(=O)N1CCN(c2ccc(Cl)c(Cl)c2)CC1,active: 11.2 µM,
CC(C)Nc1cccnc1N1CCN(C(=O)c2cc3cc(NS(C)(=O)=O)ccc3[nH]2)CC1,inactive,
N#CCOc1ccc(C2=NO[C@@H]3[C@@H]4C[C@@H]([C@H]5C(=O)N(c6ccc7c(c6)OCO7)C(=O)[C@@H]45)[C@H]23)cc1,"inconclusive: 14.1 µM [activator, single point]",
CC(C)NC(=O)CSc1nc(N)c(NC(=O)c2ccccc2F)c(=O)[nH]1,inactive,
COc1ccc(OC)c(C2CC(=O)Nc3cc(OC)c(OC)c(OC)c32)c1 (centres undefined),"inconclusive: 35.5 µM [activator, single point]",
Cc1cc(Cl)cc(Cl)c1OCCOc1cccc2cccnc12,"inconclusive: 35.5 µM [inhibitor, single point]",
Nc1ccc(S(=O)(=O)Nc2ccccc2)cc1,inactive,

# 4 entries from above in a different format:
Structure (SMILES)	Potency	activity change, negative = inhibition
Cc1ccc(-c2csc(NC(=O)/C=C/c3cccs3)n2)cc1C	inconclusive: 20 µM [inhibitor, partial curve, poor fit]	
O=C(Cn1ccc2ccccc2c1=O)NCCC(=O)N1CCN(c2cccc(C(F)(F)F)c2)CC1	inconclusive: 35.5 µM [inhibitor, single point]	
C[C@@H](C(=O)NCc1ccccc1)[C@H]1C[C@]1(C)[C@H](NC(=O)OCc1ccccc1)c1ccccc1	inconclusive: 20 µM [inhibitor, single point]	
Oc1cccc(/C=N/NC(=S)NCCN2CCOCC2)c1O	inconclusive: 35.5 µM [inhibitor, single point]	
